Assay results from PubChem BioAssay AID588590 (National Center for Advancing Translational Sciences (NCATS), 2011).
Out of some 390,000 compounds screened, about 4,000 (1%) were called active. Inconclusive results, whose numbers are uncertain, are shown with a selection of clear calls. Calls come from the whole dose curve; as a rule, active = well fitted inhibition curve with a large enough effect; inconclusive = small, poorly fitted or top-dose-only effect, or another doubt; inactive = no such curve, though single readings can be large or run the other way. Potencies of inconclusive entries are doubtful fits and often do not repeat.

By UniProt entry, the sequences of proteins in these tests, tags left out. Where a name states a change or a piece, a line headed by the entry shows the natural chain unless it says otherwise.
UniProt Q9UNA4: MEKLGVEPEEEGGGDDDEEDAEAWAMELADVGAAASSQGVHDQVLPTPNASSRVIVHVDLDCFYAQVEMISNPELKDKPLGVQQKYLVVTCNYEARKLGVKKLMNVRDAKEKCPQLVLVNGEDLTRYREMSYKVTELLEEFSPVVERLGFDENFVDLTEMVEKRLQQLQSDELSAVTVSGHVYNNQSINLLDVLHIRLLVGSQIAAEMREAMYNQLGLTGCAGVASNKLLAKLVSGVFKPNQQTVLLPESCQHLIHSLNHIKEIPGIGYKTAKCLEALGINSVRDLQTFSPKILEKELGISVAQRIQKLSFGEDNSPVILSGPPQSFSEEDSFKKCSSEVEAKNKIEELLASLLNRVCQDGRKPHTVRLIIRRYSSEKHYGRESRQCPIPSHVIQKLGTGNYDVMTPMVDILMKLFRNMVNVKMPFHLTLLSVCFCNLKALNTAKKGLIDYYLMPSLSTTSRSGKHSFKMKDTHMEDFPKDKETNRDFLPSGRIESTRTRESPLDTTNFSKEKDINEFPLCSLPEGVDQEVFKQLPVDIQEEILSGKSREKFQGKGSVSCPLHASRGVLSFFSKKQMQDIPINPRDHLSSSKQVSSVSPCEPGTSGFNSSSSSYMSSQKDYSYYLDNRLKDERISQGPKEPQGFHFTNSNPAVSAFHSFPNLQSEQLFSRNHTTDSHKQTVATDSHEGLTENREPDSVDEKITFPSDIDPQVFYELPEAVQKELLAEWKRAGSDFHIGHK

biological target: DNA polymerase iota (Homo sapiens) (UniProt Q9UNA4); assay: qHTS for Inhibitors of Polymerase Iota; conditions: Pol iota fluorescent replication assay, 10 min; series mostly up to 115 µM; activity, negative = inhibition: at the top concentration
Procedure, shortened: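 Fluorescent replication assay read twice, at 0 min and 10 min after adding 50 nM (final) substrate. Enzyme (10 nM) and compounds were first incubated 15 min at room temperature; enzyme-free buffer wells were negative controls.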
Potency is the fitted concentration of half-maximal effect.

| SMILES | activity, negative = inhibition | Potency |
| --- | --- | --- |
| COCCCNC(=O)C1CCN(c2nc3ccc(C)cc3[nH]2)CC1 | inactive: 17.6% | – |
| COc1cccc(N2CCN(C(=O)CCS(=O)(=O)c3ccc4c(c3)oc(=O)n4C)CC2)c1 | – | active: 70.8 µM |
| COc1ccc(/C=N\NC(=O)c2c(C)nc3ccc(Br)cn23)cc1 | – | inconclusive: 39.8 µM [inhibitor, single point] |
| O=C(Cc1cccs1)OCC(=O)c1ccco1 | – | inconclusive: 11.2 µM [inhibitor, full curve, poor fit] |
| CCC1C/C(=C\c2cccnc2)C(=O)/C(=C/c2cccnc2)C1 (stereo not drawn) | – | active: 22.4 µM |
| N#CC(C#N)C(c1ccsc1)c1c(-c2ccccc2)[nH][nH]c1=O (stereo not drawn) | – | inconclusive: 22.4 µM [inhibitor, single point] |
| CCOc1ccc(NC(=O)c2ccc3[nH]c(=O)c(=O)[nH]c3c2)cc1 | inactive: 53.6% | – |
| NC(=O)c1ccccc1NC(=O)CSc1cn[nH]n1 | – | inconclusive: 89.1 µM [inhibitor, single point] |
| Cc1cccc(C)c1OCC(=O)Nn1c(COc2ccccc2)nc2ccccc2c1=O | – | inconclusive: 28.2 µM [inhibitor, full curve, poor fit] |
| O=C(Nc1ccccc1)c1ccccc1OCc1ccccc1 | inactive: -18.9% | – |
| CCOC(=O)c1cc(NC(=O)c2ccccc2)c(=O)n2c1oc1ccccc12 | – | inconclusive: 89.1 µM [inhibitor, partial curve, poor fit] |
| COc1ccc(NC(=O)c2ccco2)c2ccccc12 | – | inconclusive: 35.5 µM [inhibitor, single point] |
| O=C(CCc1nnc2ccc(NCc3ccco3)nn12)Nc1cccc(F)c1 | – | inconclusive: 39.8 µM [inhibitor, single point] |
| Cc1ccc(NC(=O)Cn2ncc(Cl)c(Cl)c2=O)cc1S(=O)(=O)N1CCCCC1 | – | active: 50.1 µM |
| Cc1ccnc(-n2sc3ccccc3c2=O)n1 | – | active: 25.1 µM |
| O=C(NCCCN1CCOCC1)c1cccc(S(=O)(=O)Nc2ccc(F)cc2)c1 | inactive: -23.7% | – |
| CCOCCN(C(=O)COC)c1cccc(OC)c1 | – | inconclusive: 35.5 µM [inhibitor, single point] |
| C#CCOCCOCCOCCNc1nc(N2CCN(C(=O)CCCCCCCCCCNC(=O)Cn3cc(CCCCCN)nn3)CC2)nc(N2CCN(C(=O)CCCCCCCCCCNC(=O)[C@@H](CCSC)n3cc(CCO)nn3)CC2)n1 | – | inconclusive: 20 µM [inhibitor, partial curve, poor fit] |
| CCN(C(=O)CSc1nc(-c2ccc(C(C)C)cc2)no1)c1cccc(C)c1 | inactive: 17.3% | – |
| NC(=O)C1CCN(C(=O)c2ccc3c(=O)n(Cc4ccco4)c(SCc4ccc([N+](=O)[O-])cc4)nc3c2)CC1 | – | inconclusive: 20 µM [inhibitor, full curve, poor fit] |
| COc1cccc(C2CC(c3ccccc3OC)n3nc(N)nc3N2)c1 (stereo not drawn) | – | inconclusive: 31.6 µM [inhibitor, partial curve, poor fit] |
| CC#CCCCC(=O)Nc1cccc(C(=O)O)c1 | – | inconclusive: 35.5 µM [inhibitor, partial curve] |
| Cc1ccnc(NC(=O)c2ccc(OCC3CCCO3)cc2)c1 (stereo not drawn) | inactive: -13.9% | – |

| SMILES | activity, negative = inhibition | Potency |
| --- | --- | --- |
| COc1cc(CN2CCCC(C(=O)c3ccc4c5c(cccc35)CC4)C2)cc(OC)c1O (stereo not drawn) | – | inconclusive: 31.6 µM [inhibitor, single point] |
| O=C(NCCc1ccc(Cl)cc1)C(=O)NCC(c1ccco1)S(=O)(=O)c1ccc(Cl)cc1 (stereo not drawn) | inactive: 5.9% | – |
| O=C1CSC(=S)N1Nc1ccccc1 | – | active: 31.6 µM |
| CSc1ccc(/C=C/c2nc3ccccc3n2S(=O)(=O)c2cccc(Cl)c2)cc1 | – | inconclusive: 89.1 µM [inhibitor, single point] |
| COc1cc(-c2ccccc2)nc(N)n1 | – | inconclusive: 39.8 µM [inhibitor, partial curve, poor fit] |
| Cc1nnc(N/N=C/c2ccc(-c3ccc(Br)cc3)o2)n1N | – | inconclusive: 2.82 µM [inhibitor, full curve, poor fit] |
| CC1(C)C(=O)Nc2ccccc2N1C(=O)COC(=O)C12CC3CC(CC(O)(C3)C1)C2 | – | active: 50.1 µM |
| COc1ccc(C(=O)Cc2cc3ccccc3oc2=O)cc1 | – | inconclusive: 89.1 µM [inhibitor, single point] |
| Cc1c(Cl)cccc1NC(=S)NCCC(c1ccccc1)c1ccccc1 | inactive: 3.74% | – |
| COC(=O)c1cc(OC)cc(O)c1C(=O)c1c(O)cc(C)cc1O | – | inconclusive: 14.1 µM [inhibitor, partial curve, poor fit] |
| CCCN(C(=O)c1cc2c(s1)CCC2)c1c(N)n(Cc2ccccc2)c(=O)[nH]c1=O | – | inconclusive: 15.8 µM [inhibitor, full curve, poor fit] |
| Cc1ccc(NC(=O)C2CCCN(S(=O)(=O)c3cccc4cccnc34)C2)cc1 (stereo not drawn) | – | inconclusive: 20 µM [inhibitor, partial curve, poor fit] |
| NC(=O)c1c(NC(=O)CSc2nnc(-c3ccco3)n2-c2ccccc2)sc2c1CCC2 | – | inconclusive: 22.4 µM [inhibitor, full curve, poor fit] |
| CCCn1c(N2CCN(S(=O)(=O)Cc3ccccc3)CC2)nc2ccccc21 | – | inconclusive: 39.8 µM [inhibitor, single point] |
| O=C1C=CC(=Nc2ccc(F)cc2)O1 | inactive: 14.5% | – |
| O=C(CSc1nnc(-c2ccncc2)n1Cc1ccco1)c1ccc(Cl)cc1 | – | inconclusive: 31.6 µM [inhibitor, single point] |
| COc1cc(/C=C2/C(=O)CNC2=O)ccc1O | – | inconclusive: 15.8 µM [inhibitor, full curve, poor fit] |
| COc1cc(/C=C2\SC(N)=NC2=O)cc(Cl)c1O | inactive: 2.05% | – |
| Cn1cnnc1SCC(=O)c1ccc(O)c(O)c1 | – | inconclusive: 89.1 µM [inhibitor, single point] |
| CC(=O)CSc1nnc2cc(C)c3cc(C)cc(C)c3n12 | inactive: 30.6% | – |
| COc1cc([N+](=O)[O-])ccc1NC(=O)CSc1nccn1C | – | inconclusive: 89.1 µM [inhibitor, single point] |
| Cc1cccc(CS(=O)(=O)c2ncc(Cl)c(C(=O)Nc3c(C)cccc3C)n2)c1 | – | inconclusive: 14.1 µM [inhibitor, partial curve, poor fit] |
| CCc1ccc(CNC(=O)C2Cc3cc(S(=O)(=O)N4CCCCCC4)ccc3N2C(C)=O)cc1 (stereo not drawn) | inactive: 5.15% | – |

Single records, as listed above.
CSc1ccc(/C=C/c2nc3ccccc3n2S(=O)(=O)c2cccc(Cl)c2)cc1 reads Potency: inconclusive: 89.1 µM [inhibitor, single point]
Cc1ccc(NC(=O)Cn2ncc(Cl)c(Cl)c2=O)cc1S(=O)(=O)N1CCCCC1 reads Potency: active: 50.1 µM
CC(=O)CSc1nnc2cc(C)c3cc(C)cc(C)c3n12 reads activity, negative = inhibition: inactive: 30.6%

The list continues:

| SMILES | activity, negative = inhibition | Potency |
| --- | --- | --- |
| Fc1ccc(N/N=C2/CC(c3ccccc3)Oc3ccccc32)c(F)c1 (stereo not drawn) | inactive: 19.7% | – |
| CN1CCN(S(=O)(=O)c2cccc(C(=O)Nc3sccc3C#N)c2)CC1 | – | inconclusive: 17.8 µM [inhibitor, partial curve, poor fit] |
| COc1ccc(C2C(C#N)=C(N)OC(C(C)(C)C)=C2C#N)cc1OC (stereo not drawn) | inactive: 1.62% | – |
| CCN(CC)C(=O)CCSc1nnc(-c2ccncc2)o1 | – | inconclusive: 100 µM [inhibitor, single point] |
| COc1cccc(C2CC(=O)N(c3ccc(F)cc3)C3=C2C(=O)OC3)c1OC (stereo not drawn) | – | inconclusive: 4.47 µM [inhibitor, full curve, poor fit] |
| CC(=O)N1CCN(C(=O)c2cccc(S(=O)(=O)N3c4ccccc4CC3C)c2)CC1 (stereo not drawn) | – | inconclusive: 89.1 µM [inhibitor, single point] |
| CCC(=O)c1ccc(OCC(=O)OCC(=O)N2c3ccccc3NC(=O)C2(C)C)cc1 | – | inconclusive: 44.7 µM [inhibitor, partial curve] |
| COc1ccc(N(Cc2cccs2)C(=O)c2ccc(OCC(C)C)cc2)cc1 | inactive: 16.7% | – |
| Cc1cccc(N(CC(=O)Nc2c(C)n(C)n(-c3ccccc3)c2=O)S(C)(=O)=O)c1C | – | inconclusive: 100 µM [inhibitor, partial curve, poor fit] |
| Cc1nnc(N/N=C/c2ccc(O)c([N+](=O)[O-])c2)[nH]c1=O | – | inconclusive: 89.1 µM [inhibitor, partial curve, poor fit] |
| CC(C)(C)OC(=O)NNC(=O)c1cccs1 | inactive: 43% | – |
| COc1cccc(C(=O)OCC(=O)c2c[nH]c3ccccc23)c1OC | – | inconclusive: 89.1 µM [inhibitor, partial curve, poor fit] |
| Cc1ccc(S(=O)(=O)c2nc(S(C)(=O)=O)sc2N(C)Cc2ccccc2)cc1 | – | inconclusive: 89.1 µM [inhibitor, single point] |
| O=C(Nc1ccc(C(=O)O)cc1)/C(=C\c1ccco1)NC(=O)c1ccco1 | – | inconclusive: 39.8 µM [inhibitor, single point] |
| CC(c1ccccc1F)n1cc(C(=O)NCc2ccncc2)nn1 (stereo not drawn) | – | inconclusive: 25.1 µM [inhibitor, partial curve, poor fit] |
| CCOC(=O)COc1ccccc1C1C(C(=O)OC)=C(C)NC2=C1C(=O)c1ccccc12 (stereo not drawn) | inactive: -0.361% | – |
| Nc1cc([N+](=O)[O-])ccc1N1C(=O)CCCC1=O | – | inconclusive: 35.5 µM [inhibitor, partial curve, poor fit] |
| Cn1c2ccccc2c2nnc(NN)nc21 | – | inconclusive: 15.8 µM [inhibitor, full curve, poor fit] |
| O=C(CSc1nnc(CNC(=O)c2ccco2)o1)Nc1ccccc1F | inactive: 0.496% | – |
| CC1CC(NC(=O)C2(C)CC2(Cl)Cl)CC(C)(C)C1 (stereo not drawn) | – | inconclusive: 70.8 µM [inhibitor, partial curve, poor fit] |
| COc1cccc(Nc2cc(C)nc3nc(-c4ccc(Cl)cc4)nn23)c1 | – | inconclusive: 79.4 µM [inhibitor, single point] |
| COC(=O)c1cccc(N(C(=O)c2cnccn2)C(C(=O)NCc2ccccc2)c2ccco2)c1 (stereo not drawn) | – | inconclusive: 100 µM [inhibitor, single point] |
